Measured data: PubChem BioAssay AID1259254 (NCATS, 2017)
Assay: 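Genome-wide screen for genes that prevent DNA re-replication in cancer cells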 (primary screen). System: human HCT116 colorectal cancer cells. Reagent: single siRNA against human genes. Timing: 3 days. Read-out: 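Imaged Hoechst DNA stain sorts each cell into a cycle phase by DNA amount; per plate, G2 fraction set to 0% for non-targeting and 100% for GMNN siRNA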. Direction: G2 robust z-score: higher = more G2 cells, more excess DNA replication. Active means: 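Active siRNAs have a G2 robust z of 5 or more median absolute deviations over the median, which in these data means about 38% or higher of GMNN control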.
The deposit covers about 59,000 reagents; this is an unselected part. About 1,550 of all reagents (2.6%) count as active. 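G2 share is only a proxy for re-replication; each gene was hit by three separate siRNAs, and active genes were retested.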 Further read-outs or replicates are left out here. The record does not give: the amount of reagent.

PRPSAP1 [SID160715083]: G2 robust z-score = -0.86; Call = inactive
PRPSAP1 [SID160715085]: G2 robust z-score = -1.02; Call = inactive
PRPSAP1 [SID160715086]: G2 robust z-score = -0.535; Call = inactive
ASB5 [SID160757763]: G2 robust z-score = 0.883; Call = inactive
ASB5 [SID160757764]: G2 robust z-score = 1.05; Call = inactive
ASB5 [SID160757765]: G2 robust z-score = 0.625; Call = inactive
GDF15 [SID160722399]: G2 robust z-score = -0.769; Call = inactive
GDF15 [SID160722400]: G2 robust z-score = 2.12; Call = inactive
GDF15 [SID160735231]: G2 robust z-score = -0.291; Call = inactive
SART3 [SID160722936]: G2 robust z-score = 4.3; Call = inactive
SART3 [SID160722937]: G2 robust z-score = -0.157; Call = inactive
SART3 [SID160722938]: G2 robust z-score = -0.0288; Call = inactive
UPF2 [SID160737466]: G2 robust z-score = -0.894; Call = inactive
UPF2 [SID160737467]: G2 robust z-score = 5.52; Call = active
UPF2 [SID160737468]: G2 robust z-score = -0.0407; Call = inactive
ZNF710 [SID160765296]: G2 robust z-score = 1.3; Call = inactive
ZNF710 [SID160765297]: G2 robust z-score = 0.149; Call = inactive
ZNF710 [SID160765298]: G2 robust z-score = -1.27; Call = inactive
